Test results as given in US20240270853A1 (Chugai, published 2024).
Results are given in words; binding and its absence hold for the method and conditions named. Some results given as binding are weak or reduced against the parent protein; the word gives no strength.

Target: T1, Discoidin domain (22-190) of mouse DDR2 (mouse) (UniProt Q62371)
T1 sequence: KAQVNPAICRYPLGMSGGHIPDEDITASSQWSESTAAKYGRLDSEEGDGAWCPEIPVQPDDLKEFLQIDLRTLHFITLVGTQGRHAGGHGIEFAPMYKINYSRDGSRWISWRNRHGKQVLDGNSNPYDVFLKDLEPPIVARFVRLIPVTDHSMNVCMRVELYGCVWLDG
Experiment: X-ray crystal structure of the complex

binding: binds
B1: Fab fragment of DAB0065 (Fab, V domains shown)
VH: QSVEESGGRLVTPGTPLTLTCTVSGFSLSTSAMSWVRQAPGKGLEWIGMITYGGSGSTWYASWANGRFTISKTSTTVTLKMTSPTTEDTASYFCARVYGTIGSNFYSIYSFNLWGQGTLVTVSS
VL: AAVLTQTPSPVSAAVGGTVSISCQSSKSVYNSNYLSWYQQKPGQPPKLLIYYTSALASGVSSRFKGSGSGTRFTLTISDVQCDDAATYYCAGGYSSSSDNGFGGGTKVEIK
